Measured data: PubChem BioAssay AID1259280 (Sanger Institute, 2017)
Screen: 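Kinome siRNA screen for partners that synergise with BYL719, cetuximab or trametinib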 (primary screen). Cells: human SNU407 colorectal cancer cells. Knock-down reagent: siRNA pool against human genes. Treatment: anchor drugs BYL719 at 1 µM, cetuximab at 5 µg/ml or trametinib at 10 nM, or DMSO vehicle alone; exposure time not given. Measured: 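Viability per well scaled to a non-targeting pool and averaged over replicates, with a robust z-score from controls and a synergy score per anchor drug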. Direction: viability z-score, no drug and viability vs control, no drug: higher = more cells survive the knock-down; synergy with trametinib and synergy with BYL719 and synergy with cetuximab: higher = stronger synergy of knock-down with drug. Call rule: 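Essential calls require a no-drug robust viability z-score under -3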. Meaning of the calls: active = essential (knock-down alone kills cells); inactive = no change without drug.
Shown is a random part of 794 reagents. Of all reagents, 12 (1.5%) are marked active. 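Calls cover knock-down without drug only; synergy scores stand apart, values above 0.15 being treated as synergy.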 No viability above 1 is reported: the scale is capped. Not stated in the record: the amount of reagent, the time to read-out.

gene knocked down | viability z-score, no drug | viability vs control, no drug (fraction of control) | synergy with trametinib | synergy with BYL719 | synergy with cetuximab | Call
PRKAA2 | -0.357 | 0.904 | 0.0763 | -0.000535 | -0.0345 | inactive
MPP3 | -1.11 | 0.846 | -0.072 | -0.0154 | 0.00556 | inactive
IKBKG | 0.873 | 0.998 | -0.0669 | 0.0861 | 0.0796 | inactive
CDKL5 | 0.901 | 1 | -0.122 | 0.0191 | -0.0886 | inactive
ADK | -1.12 | 0.846 | -0.052 | -0.0451 | -0.0987 | inactive
AURKC | 0.402 | 0.962 | -0.109 | 0.0214 | -0.0892 | inactive
FXR1 | 0.215 | 0.948 | 0.0101 | 0.0729 | -0.0483 | inactive
RELA | 0.884 | 0.999 | 0.0996 | 0.0775 | 0.0374 | inactive
TSSK6 | 0.723 | 0.986 | 0.0259 | 0.0927 | 0.0147 | inactive
TWF2 | 0.237 | 0.949 | -0.14 | 0.0424 | -0.0859 | inactive
CUL1 | 0.0398 | 0.934 | -0.0603 | -0.0237 | -0.0545 | inactive
MET | 0.901 | 1 | -0.0261 | 0.0692 | -0.0328 | inactive
PTK2 | -1.5 | 0.817 | 0.0232 | 0.101 | 0.0448 | inactive
MAPK10 | 0.516 | 0.971 | -0.0103 | 0.0856 | -0.076 | inactive
TSSK3 | 0.439 | 0.965 | -0.0772 | 0.0485 | 0.109 | inactive
IRAK2 | 0.901 | 1 | -0.121 | -0.0213 | -0.07 | inactive
MVK | -0.0409 | 0.928 | -0.00354 | 0.05 | -0.0489 | inactive
PCK2 | 0.898 | 1 | -0.0445 | -0.00254 | -0.0223 | inactive
STK31 | 0.901 | 1 | -0.248 | -0.0618 | -0.0597 | inactive
ARAF | 0.901 | 1 | -0.101 | -0.0983 | 0.0477 | inactive
CDK20 | 0.598 | 0.977 | -0.00804 | 0.0746 | 0.0541 | inactive
SIK1 | 0.901 | 1 | -0.0463 | 0.0684 | 0.0788 | inactive
EFNA5 | 0.901 | 1 | -0.0114 | -0.119 | -0.0532 | inactive
GTF2H1 | -3.26 | 0.682 | -0.0366 | 0.0407 | -0.0535 | active
ACVRL1 | 0.901 | 1 | 0.055 | -0.0561 | 0.0377 | inactive
SOX9 | -0.742 | 0.874 | -0.145 | -0.104 | -0.0502 | inactive
HK3 | 0.901 | 1 | -0.0212 | -0.0589 | -0.0338 | inactive
MSR1 | 0.615 | 0.978 | 0.0473 | 0.2 | 0.0519 | inactive
LIMK1 | 0.901 | 1 | 0.0866 | -0.0165 | -0.0696 | inactive
STK35 | -0.0328 | 0.929 | -0.0267 | 0.112 | 0.102 | inactive

7 entries already listed, ordered by “viability vs control, no drug (fraction of control)”, highest first:
gene knocked down | viability z-score, no drug | viability vs control, no drug (fraction of control) | synergy with trametinib | synergy with BYL719 | synergy with cetuximab | Call
MET | 0.901 | 1 | -0.0261 | 0.0692 | -0.0328 | inactive
IRAK2 | 0.901 | 1 | -0.121 | -0.0213 | -0.07 | inactive
PCK2 | 0.898 | 1 | -0.0445 | -0.00254 | -0.0223 | inactive
MAPK10 | 0.516 | 0.971 | -0.0103 | 0.0856 | -0.076 | inactive
TSSK3 | 0.439 | 0.965 | -0.0772 | 0.0485 | 0.109 | inactive
MVK | -0.0409 | 0.928 | -0.00354 | 0.05 | -0.0489 | inactive
PTK2 | -1.5 | 0.817 | 0.0232 | 0.101 | 0.0448 | inactive

Next entries:
gene knocked down | viability z-score, no drug | viability vs control, no drug (fraction of control) | synergy with trametinib | synergy with BYL719 | synergy with cetuximab | Call
TRIB2 | -0.234 | 0.913 | 0.0994 | 0.198 | 0.0366 | inactive
TESK1 | 0.141 | 0.942 | -0.0512 | 0.0358 | -0.0506 | inactive
CDK11B | 0.901 | 1 | 0.00251 | -0.0582 | 0.0843 | inactive
EPHB1 | -0.945 | 0.859 | -0.0905 | -0.087 | -0.0429 | inactive
UCKL1 | 0.901 | 1 | -0.0723 | -0.022 | -0.0886 | inactive
EEF2K | -2.06 | 0.774 | -0.057 | 0.118 | 0.00667 | inactive
TAOK2 | 0.901 | 1 | -0.131 | -0.12 | -0.000177 | inactive
PFKM | -1.03 | 0.852 | -0.112 | -0.0574 | -0.0766 | inactive
MAPK6 | -0.143 | 0.92 | -0.025 | -0.0482 | 0.0475 | inactive
ATRX | 0.901 | 1 | -0.0595 | -0.0971 | -0.0886 | inactive
MAP2K6 | 0.901 | 1 | 0.0669 | 0.062 | 0.0495 | inactive
CDKL3 | -0.209 | 0.915 | -0.114 | -0.0199 | -0.166 | inactive
PIK3C2G | -1.39 | 0.825 | 0.0947 | 0.0468 | -0.0494 | inactive
ASPM | -0.21 | 0.915 | 0.0687 | -0.052 | 0.0833 | inactive
STK38L | -1.12 | 0.846 | -0.00904 | -0.0435 | -0.105 | inactive
MYLK2 | -1.18 | 0.841 | 0.0389 | -0.000681 | 0.035 | inactive
PRKCD | -0.62 | 0.884 | 0.089 | 0.144 | 0.132 | inactive
PNKP | -0.299 | 0.908 | 0.0589 | 0.0529 | -0.0277 | inactive
PTPN11 | -0.671 | 0.88 | -0.012 | -0.0889 | -0.072 | inactive
N4BP2 | 0.724 | 0.986 | -0.0855 | -0.0166 | 0.029 | inactive
CDK7 | 0.901 | 1 | 0.0433 | 0.113 | -0.0225 | inactive
GSK3A | 0.458 | 0.966 | 0.0642 | 0.0209 | 0.0549 | inactive
MAPK4 | 0.298 | 0.954 | 0.119 | -0.0468 | -0.0014 | inactive
PFKFB2 | 0.901 | 1 | 0.0456 | 0.0814 | 0.0775 | inactive
CSNK1A1L | 0.574 | 0.975 | -0.147 | 0.0192 | -0.0194 | inactive
PI4KB | 0.901 | 1 | -0.00982 | 0.0273 | 0.0363 | inactive
STK11 | 0.593 | 0.976 | 0.0115 | 0.0821 | -0.0197 | inactive
MYLK3 | 0.529 | 0.972 | -0.0784 | 0.00659 | -0.0119 | inactive
TAOK1 | -0.412 | 0.9 | -0.0375 | 0.0413 | 0.0129 | inactive
GRK3 | 0.862 | 0.997 | -0.0989 | 0.0288 | -0.0336 | inactive
SPEG | 0.901 | 1 | -0.00808 | 0.0328 | 0.0466 | inactive
PLK1 | -6.14 | 0.462 | -0.0189 | 0.0168 | -0.0954 | active
MARK4 | 0.901 | 1 | 0.0422 | 0.105 | 0.0316 | inactive
